Results: US20120100152A1
No constants are given. Whether binding was seen depends on the method and setting. Binding calls can cover weak binding; strength is not graded here.

Protein sequences, listed by entry. Tags and fused reporters are not part of them. Lines headed by an entry give the natural chain unless they say otherwise; changes in a name come on top.
UniProt P55899: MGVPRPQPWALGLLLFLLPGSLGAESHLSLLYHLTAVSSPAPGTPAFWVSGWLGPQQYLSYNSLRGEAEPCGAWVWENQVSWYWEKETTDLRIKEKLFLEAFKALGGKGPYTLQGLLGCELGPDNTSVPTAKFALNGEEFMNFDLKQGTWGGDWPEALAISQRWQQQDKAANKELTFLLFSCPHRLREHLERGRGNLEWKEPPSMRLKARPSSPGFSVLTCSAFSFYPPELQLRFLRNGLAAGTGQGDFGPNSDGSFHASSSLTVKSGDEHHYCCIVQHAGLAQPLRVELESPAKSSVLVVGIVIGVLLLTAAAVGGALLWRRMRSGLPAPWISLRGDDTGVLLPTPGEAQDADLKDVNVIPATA
UniProt Q61559: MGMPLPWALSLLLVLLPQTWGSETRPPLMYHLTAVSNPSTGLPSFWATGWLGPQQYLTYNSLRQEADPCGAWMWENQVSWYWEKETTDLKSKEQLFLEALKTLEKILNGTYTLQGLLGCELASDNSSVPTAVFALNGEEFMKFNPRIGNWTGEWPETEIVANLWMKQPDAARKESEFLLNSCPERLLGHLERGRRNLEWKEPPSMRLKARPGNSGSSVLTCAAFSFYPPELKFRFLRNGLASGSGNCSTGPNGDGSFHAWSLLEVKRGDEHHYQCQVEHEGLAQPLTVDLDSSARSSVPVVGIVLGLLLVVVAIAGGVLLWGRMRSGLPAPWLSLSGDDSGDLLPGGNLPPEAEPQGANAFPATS

Legend:
human FcRn (human) [1] = molecular target: human FcRn (human) (UniProt P55899); assay: Biacore (SPR)
mouse FcRn (mouse) [2] = molecular target: mouse FcRn (mouse) (UniProt Q61559); assay: Biacore (SPR)
mouse FcRn (mouse) [3] = molecular target: mouse FcRn (mouse) (UniProt Q61559); assay: Biacore, mouse FcRn binding at pH 6.0
human FcRn (human) [4] = molecular target: human FcRn (human) (UniProt P55899); assay: Biacore, human FcRn binding at pH 6.0

Measured: binding

B1: humanized antibody 2C3-SFD1/K12 (antibody, V domains shown)
VH: EVQLVESGGGLVQPGGSLRLSCAASGFTFNTYWMNWVRQAPGKGLEWVGQIRLKSNNYATHYAESVKGRFTISRDDSKNSLYLQMNSLKTEDTAVYYCTPVDFWGQGTTVTVSS
VL: DIVMTQTPLSLSVTPGQPASISCKSSQSLLYSNGKTYLNWLLQKPGQSPQRLIYLVSKLDSGVPDRFSGSGSGTDFTLKISRVEAEDVGVYYCVQGTHLHTFGQGTRLEIKR
binds: all assays above
